Some of these results come from one statement about several compounds together. Some compounds share one range, which may span the group rather than tell each member.
System: patients with chronic thromboembolism and displaying secondary PHT
Test: Pulmonary vascular resistance (delta PVR, right cardiac catheterization) in patients with chronic thromboembolism
Format: in vivo, human
Details: 7 patients; PGI i.v. 6 ng/kg/min, NO 20 ppm inhaled, sildenafil 50 mg oral
Description: FIG. 4: Result of measurement of the arterial oxygen partial pressure (PaO2) on 7 patients with chronic thromboembolism and displaying secondary PHT (pulmonary hypertension). The arterial oxygen partial pressure was improved by NO (inhaled) [20 ppm] and sildenafil (oral) [50 mg] by respectively 1.8% and 7.6%, whereas the oxygen saturation fell by 13% after administration of PGI (intravenous). In the same experiment, the vascular resistance was measured and determined as delta PVR by a right cardiac catheterization. The vascular resistance was reduced respectively by 25%, 19% and 21% after administration of PGI (intravenous) [6 ng/kg bodyweight/min], NO (inhaled) [20 ppm] and sildenafil (oral) [50 mg].
7 patients with CTEPH underwent a Swan-Ganz catheter investigation with measurement of the ventilation/perfusion (V/Q) distribution (using the multiple inert gas elimination technique (MIGET)). […] The following parameters were measured under baseline conditions: mean pulmonary arterial pressure (mPAP) 52.1 +/−3.3 mmHg, cardiac index (CI) 2.2+/−0.1 |* min^−1*m^−2, pulmonary vascular resistance index (PVRI) 1703.8+/−129.5 […], arterial pO2 72.5+/−3.3 mmHg and mixed venous oxygen saturation (SvO2) of 63.4+/−2.2%.

In the case of `CCCCC[C@H](O)/C=C/[C@@H]1[C@H]2C/C(=C/CCCC(=O)O)O[C@H]2C[C@H]1O` [PGI, prostacyclin], the “vascular resistance (PVR), reduction” value is reported as 20-25%.
For `CCCc1nn(C)c2c(=O)[nH]c(-c3cc(S(=O)(=O)N4CCN(C)CC4)ccc3OCC)nc12` [sildenafil, 5-[2-ethoxy-5-(4-methyl-1-piperazinyl-sulphonyl)phenyl]-1-methyl-3-n-propyl-1,6-dihydro-7H-pyrazolo[4,3-d]pyrimidin-7-one], the “vascular resistance (PVR), reduction” value was 20-25%.

— US20050107394A1, “Novel use of selective pde5 inhibitors” (priority 2001, published 2005)
